# Source: PubChem BioAssay AID1347076 (National Center for Advancing Translational Sciences (NCATS), 2019)
# About 13,000 (3.2%) of roughly 400,000 compounds were called active. The shares of active, inactive and inconclusive entries below differ from those in the screen. Calls follow the shape of the dose curve; as a rule, active = well fitted cell-killing curve with a large enough effect; inconclusive = small, poorly fitted or top-dose-only effect, or effect the other way; inactive = flat fitted curve, though single readings scatter. A potency beside an inconclusive call is a rough fit, not a confirmed value. Some structures have more than one record in an assay (separate samples or runs), and their calls can disagree.
# Test: qHTS assay for MDR1-selective chemotherapeutics: Primary screen using the drug-selected MDR subline cells KB-V1; also: nearly all actives have a fitted effect of over 60% in size
# Conditions: KB-V1 MDR cells viability, CellTiter-Glo, 72 h; activity change, negative = cytotoxicity: at 46.1 µM (top of the series)
# Method in brief: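 KB-V1 MDR subline cells in DMEM (phenol-red free, 10% FBS) exposed to compounds in qHTS concentration series for 72 h at 37 degrees C. Viability read by CellTiter-Glo luminescence; concentration-effect curves fitted after normalization and correction.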
# % is scaled to controls: 0 for no effect and ±100 for the full control effect; potency is read from the fitted curve at half-maximal effect.
SMILES,Potency,"activity change, negative = cytotoxicity"
Cc1ccc(S(=O)(=O)Nc2cccc3ncccc23)s1,"inconclusive: 32.6 µM [cytotoxic, single point]",–
N#Cc1nc(-c2ccc(Cl)cc2)oc1NCc1ccco1,inactive,–
Fc1ccc(Cn2nnnc2CN2CCN(C3CCCC3)CC2)cc1,"inconclusive: 20.6 µM [cytotoxic, partial curve, poor fit]",–
O=C1C2CCCN2C(c2ccc(F)cc2)N1c1ccc(Cl)cc1 (stereo not drawn),"inconclusive: 7.31 µM [cytotoxic, partial curve, poor fit]",–
C=CC[C@@H](CC(=O)N(CCO)Cc1ccccc1)C(=O)NC[C@@H](OC(=O)[C@@H](CC=C)Cc1ccc(F)cc1)c1ccccc1,"inconclusive: 29.1 µM [cytotoxic, single point]",–
COc1ccc(S(=O)(=O)n2nc(-c3ccco3)nc2NCc2ccc(N(C)C)cc2)cc1,inactive,–
COc1ccc(Cl)cc1N1CC(c2nc3ccccc3[nH]2)CC1=O (stereo not drawn),"inconclusive: 16.4 µM [rising, single point]",–
O=C(NCCn1ccc2ccccc21)c1cccc([N+](=O)[O-])c1,"inconclusive: 16.4 µM [cytotoxic, single point]",–
CCN1CCN(Cc2nc3cc(NC(=O)c4cc(OC)c(OC)c(OC)c4)ccc3n2CC)CC1,"inconclusive: 6.51 µM [rising, partial curve, poor fit]",–
Cc1nn2c(nc(N3CCCCC3)c3ccccc32)c1C=O,inactive,–
Cc1ccc(CNC(=O)N2CCC(CN3CCC(C)CC3)CC2)cc1,inactive,–
CC1CC(C)(C)OC(C[N+]2(C)CCCCC2)O1 (stereo not drawn),"inconclusive: 0.184 µM [rising, full curve]",–
C[C@@H]1CN([C@H](C)CO)C(=O)c2cc(NC(=O)Nc3ccc(F)cc3)ccc2O[C@@H](C)CCCCO[C@H]1CN(C)Cc1ccc(C(=O)O)cc1,"inconclusive: 29.1 µM [rising, partial curve, poor fit]",–
Cc1cccnc1NC(=O)c1c(O)c2ccccc2n(C)c1=O,active: 7.31 µM,–
Fc1cccc(Nc2c3c(nc4ccccc24)CCC3)c1,"inconclusive: 11.6 µM [cytotoxic, partial curve]",–
Cc1cc(N2CCOCC2)c2c(N)c(Br)cc(C)c2n1,"inconclusive: 29.1 µM [cytotoxic, single point]",–
CCC1CN(C(=O)NCc2ccc(C)cc2)c2cc(Cl)ccc2O1 (stereo not drawn),"inconclusive: 18.4 µM [rising, single point]",–
CN(CC(=O)NC1CC1)S(=O)(=O)c1ccc(F)cc1,inactive,–
CC(C)CC(=O)Nc1nnc(SCC(=O)Nc2nccs2)s1,inactive,–
CC1CCCCC12NC(=O)N(CC(=O)N1CCN(C(=O)c3cccs3)CC1)C2=O (stereo not drawn),inactive,–
Cc1ccc2scc(N3CCc4ccccc4C3)c(=O)c2c1,inactive,–
CCCC(=O)NC(c1ccc(OC)c(OC)c1)c1cc(Cl)c2cccnc2c1O (stereo not drawn),active: 23.1 µM,–
COc1ccc(-n2nnnc2CNC(=O)C(=O)c2c[nH]c3ccccc23)cc1,"inconclusive: 29.1 µM [cytotoxic, single point]",–
O=C(Cn1ccc(=O)[nH]c1=O)Nc1nccs1,inactive,–
O=C(COc1ccccc1-c1ccccc1)NCCN1C(=O)S/C(=C\c2cccnc2)C1=O,"inconclusive: 29.1 µM [cytotoxic, single point]",–

SMILES,Potency,"activity change, negative = cytotoxicity"
C=CCN1C=C2C(=O)C(C)(OC(=O)C3CCCC3)C(=O)C=C2C=C1c1ccsc1 (stereo not drawn),inactive,–
COc1cc2c(cc1NC(=O)CN(C)Cc1ccc(OC)c(OC)c1)oc1ccccc12,"inconclusive: 4.11 µM [cytotoxic, partial curve]",–
CCOC(=O)c1cccc(NC(=O)c2ccco2)c1,"inconclusive: 20.6 µM [cytotoxic, partial curve, poor fit]",–
Cn1cccc1-c1nc2ccc(NC(=O)c3cccs3)cc2[nH]1,"inconclusive: 35.5 µM [cytotoxic, single point]",–
CCOC(CCn1ccc(O)c(Cc2ccc(Cl)cc2)c1=O)OCC,inactive,–
COc1ccc(C(CC(=O)O)NS(=O)(=O)c2ccc3c(c2)NC(=O)CO3)cc1 (stereo not drawn),–,inconclusive: 14.1%
COc1cccc(NC(=O)c2cc(-c3ccccn3)nc3ccccc23)c1,active: 1.84 µM,–
Cc1sc2nc(CSc3ccccc3)nc(N3CCC(C(N)=O)CC3)c2c1C,"inconclusive: 2.91 µM [cytotoxic, partial curve]",–
COC(=O)c1sc(S(=O)(=O)N2CCCCC2)c(C(=O)OC)c1C,"inconclusive: 9.2 µM [cytotoxic, partial curve]",–
O=C(CCn1cnc2ccccc2c1=O)Nc1nc(-c2ccc(Br)cc2)cs1,inactive,–
S=C(NNc1ccnc2cc(Cl)ccc12)Nc1ccc(Cl)cc1Cl,"inconclusive: 20.6 µM [cytotoxic, single point]",–
O=C(Nc1nc(-c2cccs2)cs1)c1ccc(Cl)cc1,active: 20.6 µM,–
O=C(Cn1c(=O)n(Cc2ccc(Cl)cc2)c(=O)c2cccnc21)Nc1ccccc1C(F)(F)F,inactive,–
COc1ccc(NC(=O)CSc2nnc(Cn3cnc4ccccc43)n2C)cc1,"inconclusive: 1.3 µM [rising, full curve, poor fit]",–
Cc1ccc(-c2nnc(-c3ccc(NC(=O)Cc4cccs4)cc3)o2)cc1,"inconclusive: 23.1 µM [cytotoxic, single point]",–
CC(=O)c1c(C)[nH]c(C(=O)Nc2ccc(Cl)cc2F)c1C,"inconclusive: 20.6 µM [cytotoxic, single point]",–
COc1cc(C(=O)NCCOc2cc(C)cc(C)c2)c(Br)c(OC)c1OC,active: 10.3 µM,–
c1ccc(CN2CCC3CC2c2cc(N4CCCCC4)ccc23)cc1 (stereo not drawn),inactive,–
COc1ccc(NC(=O)c2cc(F)c(F)cc2Cl)cc1Cl,inactive,–
CN(Cc1ccc(F)cc1)S(=O)(=O)c1nnc(NC(=O)c2ccccc2Br)s1,inactive,–
Cn1c(=O)oc2cc(S(=O)(=O)N3CCC(C(=O)NCc4ccccc4)CC3)ccc21,"inconclusive: 0.0731 µM [rising, full curve, poor fit]",–
Cc1ccccc1N1CCN(C2CCCN(C(=O)c3cnsn3)C2)CC1 (stereo not drawn),inactive,–
CC(C)C(=O)N1CCC(CN=Cc2c(O)n(C3CCCCC3)c(=O)n(C3CCCCC3)c2=O)CC1,"inconclusive: 23.1 µM [cytotoxic, single point]",–
Cc1ccc([N+](=O)[O-])cc1S(=O)(=O)N1CCn2cccc2C1c1ccccc1F (stereo not drawn),inactive,–
CC(C)CNC(=O)c1cccc2c(-c3ccc(F)c(F)c3)coc12,inactive,–

SMILES,Potency,"activity change, negative = cytotoxicity"
Cc1cccc(N2CCN(Cc3ccc([N+](=O)[O-])o3)CC2)c1C,inactive,–
O=C(Cn1nc(-c2ccccc2)ccc1=O)Nc1ccc(-n2cnnn2)cc1,"inconclusive: 29.1 µM [rising, single point]",–
CCCCC(=O)Oc1ccc2oc(-c3ccc(OC)cc3)cc(=O)c2c1,active: 6.51 µM,–
Cc1cc(C)c(C)c(S(=O)(=O)Nc2ccccc2C(=O)NN2CCOCC2)c1C,inactive,–
Fc1cc(Br)cc(F)c1NC(=S)N1CCOCC1,"inconclusive: 8.2 µM [rising, partial curve, poor fit]",–
CN(C)c1cccc(C(=O)Nc2nnc(Cc3ccccc3)s2)c1,"inconclusive: 7.31 µM [cytotoxic, partial curve, poor fit]",–
CC(C)(C)c1ccc(C(=O)NC(=S)NNC(=O)c2cccs2)cc1,"inconclusive: 1.3 µM [cytotoxic, full curve, poor fit]",–
CC(C)c1nc(SCC(=O)N2CCCCC2)c2c(=O)n(C)c(=O)n(C)c2n1,"inconclusive: 18.4 µM [cytotoxic, partial curve, poor fit]",–
CC(=O)c1ccc(NC(=O)Cn2cnc3nc4c(cc3c2=O)CC(C)CC4)cc1 (stereo not drawn),"inconclusive: 29.1 µM [rising, single point]",–
COCCn1c(=O)[nH]c2cc(C(=O)N3CCN(c4cccc(C(F)(F)F)c4)CC3)ccc2c1=O,inactive,–
Cc1ccc(S(=O)(=O)N2CCOCC2)cc1NC(=O)COc1cccc(Oc2ccccc2)c1,"inconclusive: 10.3 µM [cytotoxic, partial curve]",–
Cc1ccccc1CN1CCN(c2ccc(S(=O)(=O)N3CCCC3)cn2)CC1,active: 9.2 µM,–
O=C1/C(=C\c2ccc([N+](=O)[O-])cc2)CS(=O)(=O)C/C1=C/c1ccc([N+](=O)[O-])cc1,"inconclusive: 29.1 µM [rising, single point]",–
COC(=O)c1ccc(C2/C(=C(/O)c3ccc(Cl)cc3)C(=O)C(=O)N2C2CCS(=O)(=O)C2)cc1 (stereo not drawn),–,inconclusive: 42.1%
Cc1ccc(NC(=O)CSc2nc3ccc(NC(=O)c4cccs4)cc3s2)cc1,inactive,–
Cc1nn(C)c(C)c1NS(=O)(=O)c1ccc(Cl)cc1,"inconclusive: 23.1 µM [cytotoxic, partial curve, poor fit]",–
CCOC(=O)c1cnc2cc(C(F)(F)F)ccc2c1N1CCN(c2cccc(Cl)c2)CC1,inactive,–
O=C(Nc1ccccc1C(=O)OCc1cc(=O)n2ccsc2n1)c1ccc(Cl)cc1,inactive,–
O=C(/C=C/c1ccc(OC2CSC2)cc1)c1ccc(Cl)cc1,inactive,–
O=C(c1cccc(-n2cccc2)c1)N1CCN(S(=O)(=O)c2ccc(F)cc2)CC1,"inconclusive: 18.4 µM [cytotoxic, single point]",–
CCCCCc1c(O)c2ccccc2[nH]c1=O,active: 16.4 µM,–
Fc1ccc(-n2c(Cc3ccccc3)nnc2SCc2nc(-c3ccc(Cl)cc3)no2)cc1,active: 14.6 µM,–
CC(C)(C)C(=O)N1CCN(S(=O)(=O)c2ccc3c(c2)OCCCO3)CC1,"inconclusive: 6.51 µM [cytotoxic, partial curve]",–

# 15 entries already listed, ordered by molar mass, high to low.
SMILES,Potency,"activity change, negative = cytotoxicity"
COC(=O)c1ccc(C2/C(=C(/O)c3ccc(Cl)cc3)C(=O)C(=O)N2C2CCS(=O)(=O)C2)cc1 (stereo not drawn),–,inconclusive: 42.1%
COCCn1c(=O)[nH]c2cc(C(=O)N3CCN(c4cccc(C(F)(F)F)c4)CC3)ccc2c1=O,inactive,–
CCOC(=O)c1cnc2cc(C(F)(F)F)ccc2c1N1CCN(c2cccc(Cl)c2)CC1,inactive,–
O=C(Nc1ccccc1C(=O)OCc1cc(=O)n2ccsc2n1)c1ccc(Cl)cc1,inactive,–
Cc1cc(C)c(C)c(S(=O)(=O)Nc2ccccc2C(=O)NN2CCOCC2)c1C,inactive,–
O=C1/C(=C\c2ccc([N+](=O)[O-])cc2)CS(=O)(=O)C/C1=C/c1ccc([N+](=O)[O-])cc1,"inconclusive: 29.1 µM [rising, single point]",–
Cc1ccccc1CN1CCN(c2ccc(S(=O)(=O)N3CCCC3)cn2)CC1,active: 9.2 µM,–
CC(C)c1nc(SCC(=O)N2CCCCC2)c2c(=O)n(C)c(=O)n(C)c2n1,"inconclusive: 18.4 µM [cytotoxic, partial curve, poor fit]",–
CC(C)(C)C(=O)N1CCN(S(=O)(=O)c2ccc3c(c2)OCCCO3)CC1,"inconclusive: 6.51 µM [cytotoxic, partial curve]",–
O=C(Cn1nc(-c2ccccc2)ccc1=O)Nc1ccc(-n2cnnn2)cc1,"inconclusive: 29.1 µM [rising, single point]",–
CN(C)c1cccc(C(=O)Nc2nnc(Cc3ccccc3)s2)c1,"inconclusive: 7.31 µM [cytotoxic, partial curve, poor fit]",–
Fc1cc(Br)cc(F)c1NC(=S)N1CCOCC1,"inconclusive: 8.2 µM [rising, partial curve, poor fit]",–
O=C(/C=C/c1ccc(OC2CSC2)cc1)c1ccc(Cl)cc1,inactive,–
Cc1cccc(N2CCN(Cc3ccc([N+](=O)[O-])o3)CC2)c1C,inactive,–
Cc1nn(C)c(C)c1NS(=O)(=O)c1ccc(Cl)cc1,"inconclusive: 23.1 µM [cytotoxic, partial curve, poor fit]",–
